Results are given in words; binding and its absence hold for the method and conditions named. Some entries that bind do so weakly or less than the wild type.
Biological target: VEGFR-3/FLT-4 wild type (UniProt P35916)
Assay: blot of direct binding (FIG. 11)

Amino acid sequences for entries named in this document (tags omitted). Residues count along the entry.
UniProt P35916, residues 25-1363: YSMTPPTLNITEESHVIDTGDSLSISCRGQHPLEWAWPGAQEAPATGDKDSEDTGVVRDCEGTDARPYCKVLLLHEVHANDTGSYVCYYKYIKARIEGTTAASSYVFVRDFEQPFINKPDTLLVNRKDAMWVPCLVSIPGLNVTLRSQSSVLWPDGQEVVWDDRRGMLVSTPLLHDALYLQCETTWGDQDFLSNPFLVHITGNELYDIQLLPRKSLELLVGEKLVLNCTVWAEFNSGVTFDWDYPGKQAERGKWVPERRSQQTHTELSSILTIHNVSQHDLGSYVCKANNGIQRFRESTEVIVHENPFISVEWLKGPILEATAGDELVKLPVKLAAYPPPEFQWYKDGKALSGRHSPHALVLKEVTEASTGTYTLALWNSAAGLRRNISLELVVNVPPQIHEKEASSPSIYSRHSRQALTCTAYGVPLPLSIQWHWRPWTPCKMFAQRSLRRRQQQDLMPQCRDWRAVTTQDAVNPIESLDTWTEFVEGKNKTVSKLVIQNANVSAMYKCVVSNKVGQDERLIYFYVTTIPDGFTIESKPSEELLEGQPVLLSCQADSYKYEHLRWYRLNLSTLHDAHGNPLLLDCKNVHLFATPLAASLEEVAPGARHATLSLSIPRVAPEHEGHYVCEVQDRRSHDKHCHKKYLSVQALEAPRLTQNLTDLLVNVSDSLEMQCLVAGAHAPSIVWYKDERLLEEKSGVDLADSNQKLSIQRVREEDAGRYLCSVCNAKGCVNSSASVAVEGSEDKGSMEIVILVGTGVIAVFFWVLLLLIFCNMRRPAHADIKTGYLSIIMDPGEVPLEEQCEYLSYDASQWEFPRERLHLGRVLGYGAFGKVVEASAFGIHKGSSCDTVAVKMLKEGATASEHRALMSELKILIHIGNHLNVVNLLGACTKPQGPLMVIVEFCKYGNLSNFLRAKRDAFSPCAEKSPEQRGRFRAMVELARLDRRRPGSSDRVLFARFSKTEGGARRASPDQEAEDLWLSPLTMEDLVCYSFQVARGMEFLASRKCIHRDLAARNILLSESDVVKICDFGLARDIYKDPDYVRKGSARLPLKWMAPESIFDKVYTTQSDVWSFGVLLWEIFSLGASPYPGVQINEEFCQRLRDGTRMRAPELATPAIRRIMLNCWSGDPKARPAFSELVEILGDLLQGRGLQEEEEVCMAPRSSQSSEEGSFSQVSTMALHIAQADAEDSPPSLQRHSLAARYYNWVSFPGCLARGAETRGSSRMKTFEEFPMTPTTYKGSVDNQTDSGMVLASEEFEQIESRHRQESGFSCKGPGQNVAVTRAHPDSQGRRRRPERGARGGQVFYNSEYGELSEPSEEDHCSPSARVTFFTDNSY
UniProt Q05397, residues 693-1052: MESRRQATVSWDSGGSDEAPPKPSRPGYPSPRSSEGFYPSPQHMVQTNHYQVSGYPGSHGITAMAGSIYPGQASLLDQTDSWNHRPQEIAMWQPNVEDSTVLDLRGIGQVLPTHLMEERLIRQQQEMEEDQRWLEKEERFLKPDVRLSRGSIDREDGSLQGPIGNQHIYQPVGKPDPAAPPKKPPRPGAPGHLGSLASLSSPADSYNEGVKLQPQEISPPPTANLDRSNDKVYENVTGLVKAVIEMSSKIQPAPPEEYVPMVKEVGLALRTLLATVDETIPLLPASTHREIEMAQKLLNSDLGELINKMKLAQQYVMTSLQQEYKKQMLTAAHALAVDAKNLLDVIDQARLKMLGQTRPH

Which binding does the source give for “C-terminal domain of focal adhesion kinase (FAK-CD), baculoviral (from UniProt Q05397 693-1052)” here?
The binding was “binds”.
